# Laboratory results published in PubChem BioAssay AID296 (DTP/NCI, 2004).
# The list is a part of this screen's results and no random one: it is rich in T/C values a quarter to a half above the control, in often repeated tests (any T/C) and in doses without a T/C. Further doses and runs are listed elsewhere. T/C gives the treated animals as a percentage of the vehicle group. Schedule codes are those of the source, read here as Q, the interval in days (D) or hours (H), X, the number of doses. Some values lie below zero, which means that the treated tumours became smaller. Some entries were tested several times; the results are listed from low to high. Some T/C values are followed by the survivors on the day toxicity was checked, most often the fifth; where none is given, no animal had died by that day. Some entries give survivors of the animals treated and no T/C: the source files T/C as zero there, which appears to mark a toxic dose or a test without result, not a measured value. Counts of survivors are from the toxicity check (mostly the fifth day) where no day follows; animals may have died later.
# Tested on: MX-1 breast xenograft, nude mice, tumor weight T/C
# Test: NCI In Vivo Anticancer Drug Screen. Data for tumor model Human Mammary Carcinoma MX-1 Xenograft (intrarenal inoculation) in NU/NU Swiss (nude) mice
# Settings: T/C endpoint: mean tumor weight change, higher T/C = larger tumour; for T/C: evaluated on day 11
# Description: The antitumor activity of compounds was measured in mice bearing transplantable tumors. Survival or tumor size were measured and the results are expressed as the measurement made in the treated group (T) divided by the measurement made in the vehicle treated control group (C). The tumor model used in this assay is Human Mammary Carcinoma MX-1 Xenograft (intrarenal inoculation) in NU/NU Swiss (nude) mice
# [1] = dose: 1200.0 mg/kg/injection, schedule: Q04DX003 (sc), vehicle: suspension in saline
# [2] = dose: 1600.0 mg/kg/injection, schedule: Q04DX003 (sc), vehicle: suspension in saline
# [3] = dose: 600.0 mg/kg/injection, schedule: Q04DX003 (sc), vehicle: saline with Tween-80
# [4] = dose: 75.0 mg/kg/injection, schedule: Q04DX003 (sc), vehicle: suspension in saline
# [5] = dose: 1200.0 mg/kg/injection, schedule: Q04DX003 (sc), vehicle: saline with Tween-80
# [6] = dose: 100.0 mg/kg/injection, schedule: Q04DX003 (sc), vehicle: Klucel (hydroxypropylcellulose) (HPC)
# [7] = dose: 150.0 mg/kg/injection, schedule: Q04DX003 (sc), vehicle: suspension in saline
# [8] = dose: 300.0 mg/kg/injection, schedule: Q04DX003 (sc), vehicle: suspension in saline
# [9] = dose: 600.0 mg/kg/injection, schedule: Q04DX003 (sc), vehicle: suspension in saline
# [10] = dose: 150.0 mg/kg/injection, schedule: Q04DX003 (sc), vehicle: Klucel (hydroxypropylcellulose) (HPC)
# [11] = dose: 300.0 mg/kg/injection, schedule: Q04DX003 (sc), vehicle: Klucel (hydroxypropylcellulose) (HPC)
# [12] = dose: 600.0 mg/kg/injection, schedule: Q04DX003 (sc), vehicle: Klucel (hydroxypropylcellulose) (HPC)
# [13] = dose: 1200.0 mg/kg/injection, schedule: Q04DX003 (sc), vehicle: Klucel (hydroxypropylcellulose) (HPC)
structure (smiles),measurement,setting,value
CCCCn1cnc2c(=S)nc[nH]c21,survivor count,[1],1 of 6 on day 11
same,survivor count,"dose: 1280.0 mg/kg/injection, schedule: Q04DX003 (sc), vehicle: suspension in saline",3 of 6 on day 11
same,survivor count,[2],2 of 6 on day 11
same,survivor count,"dose: 2000.0 mg/kg/injection, schedule: Q04DX003 (sc), vehicle: suspension in saline",1 of 6 on day 11
same,survivor count,"dose: 2400.0 mg/kg/injection, schedule: Q04DX003 (sc), vehicle: suspension in saline",2 of 6 on day 11
CC1c2ccccc2CC(CCN(C)C)c2ccccc21 (centres undefined),survivor count,"dose: 75.0 mg/kg/injection, schedule: Q04DX003 (sc), vehicle: saline with Tween-80",2 of 6 on day 11
same,survivor count,"dose: 150.0 mg/kg/injection, schedule: Q04DX003 (sc), vehicle: saline with Tween-80",0 of 6 on day 11
same,survivor count,"dose: 300.0 mg/kg/injection, schedule: Q04DX003 (sc), vehicle: saline with Tween-80",0 of 6 on day 11
same,survivor count,[3],0 of 6 on day 11
O=C1OC(=O)[C@H]2[C@@H]1[C@H]1C=C[C@@H]2OC1=O,survivor count,[4],3 of 6 on day 11
CCN(CC)CCC(=O)c1ccccc1,survivor count,[3],3 of 6 on day 11
Cn1cnc([N+](=O)[O-])c1Sc1ncn[nH]1,survivor count,"dose: 800.0 mg/kg/injection, schedule: Q04DX003 (sc), vehicle: suspension in saline",2 of 6 on day 11
O=C1C2CC=CCC2C(=O)N1SC(Cl)(Cl)Cl (centres undefined),survivor count,[3],2 of 6 on day 11
same,survivor count,[5],1 of 6 on day 11
C1CC[N-]CC1.[Cl][Pt+2][Cl].[NH-]C1CC1,survivor count,[6],2 of 6 on day 11
same,survivor count,"dose: 200.0 mg/kg/injection, schedule: Q04DX003 (sc), vehicle: Klucel (hydroxypropylcellulose) (HPC)",0 of 6 on day 11
same,survivor count,"dose: 200.0 mg/kg/injection, schedule: Q04DX003 (sc), vehicle: water",2 of 4 on day 11
C1=CCOCOC1,survivor count,[3],0 of 6 on day 11
same,survivor count,[5],0 of 6 on day 11
S=c1nc[nH]c2nc[nH]c12,T/C,"dose: 3.13 mg/kg/injection, schedule: Q01DX010 (sc), vehicle: Klucel (hydroxypropylcellulose) (HPC)",133 % of control [2 of 2 alive on day 11]
same,survivor count,"dose: 25.0 mg/kg/injection, schedule: Q01DX010 (sc), vehicle: Klucel (hydroxypropylcellulose) (HPC)",0 of 3 on day 11 and 1 of 3 on day 11
same,survivor count,"dose: 50.0 mg/kg/injection, schedule: Q01DX010 (sc), vehicle: Klucel (hydroxypropylcellulose) (HPC)",0 of 3 on day 11
same,survivor count,"dose: 100.0 mg/kg/injection, schedule: Q01DX010 (sc), vehicle: Klucel (hydroxypropylcellulose) (HPC)",0 of 2 on day 11
Nc1ncn(C2OC(CO)C(O)C2O)c(=O)n1 (centres undefined),T/C,"dose: 0.19 mg/kg/injection, schedule: Q01DX010 (sc), vehicle: saline",144 % of control [2 of 2 alive on day 11]
same,survivor count,"dose: 1.5 mg/kg/injection, schedule: Q01DX010 (sc), vehicle: saline",0 of 3 on day 11
same,survivor count,"dose: 3.0 mg/kg/injection, schedule: Q01DX010 (sc), vehicle: saline",0 of 3 on day 11
same,survivor count,"dose: 6.0 mg/kg/injection, schedule: Q01DX010 (sc), vehicle: saline",0 of 3 on day 11
same,survivor count,"dose: 12.0 mg/kg/injection, schedule: Q01DX010 (sc), vehicle: saline",0 of 3 on day 11
same,survivor count,"dose: 20.0 mg/kg/injection, schedule: Q04DX003 (sc), vehicle: saline",1 of 6 on day 11
same,survivor count,"dose: 40.0 mg/kg/injection, schedule: Q04DX003 (sc), vehicle: saline",3 of 6 on day 11
same,T/C,[7],"-56, 6, 10 % of control"
same,T/C,[8],"1, 2, 3 % of control"
same,T/C,[9],"-81 [4 of 6 alive on day 11], -59, -30, -7 % of control"
same,T/C,[1],"-69 [5 of 6 alive on day 11], -66, 2 % of control [5 of 6 alive on day 11]"
same,survivor count,[1],2 of 5 on day 11
same,survivor count,[2],3 of 6 on day 11
C/C=C/C=C/c1cc2cc3c(c(O)c2c(=O)[nH]1)C1(CC3)C(O)=c2c(=O)c3c(=O)cc(OC)c(=O)c=3c(=O)c2=C1O (centres undefined),T/C,"dose: 2.0 mg/kg/injection, schedule: Q01DX010 (sc), vehicle: DMSO",129 % of control [2 of 2 alive on day 11]
same,T/C,"dose: 4.0 mg/kg/injection, schedule: Q01DX010 (sc), vehicle: DMSO",136 % of control
O=C1C2(Cl)C3(Cl)C4(Cl)C(Cl)(Cl)C5(Cl)[C@]3(Cl)C1(Cl)[C@]5(Cl)C24Cl (some centres undefined),survivor count,[10],3 of 6 on day 11
same,survivor count,[11],0 of 6 on day 11
CC1CN1P1(N2CC2C)=NP(N2CC2C)(N2CC2C)=NP(N2CC2C)(N2CC2C)=N1 (centres undefined),T/C,[4],"23, 29, 32, 42, 46 % of control"
same,survivor count,"dose: 150.0 mg/kg/injection, schedule: Q01DX010 (sc), vehicle: saline",0 of 6 on day 11
same,T/C,[7],"-94, 4, 5, 10 [5 of 6 alive on day 11], 72 % of control"
same,survivor count,"dose: 200.0 mg/kg/injection, schedule: Q01DX010 (sc), vehicle: saline",0 of 3 on day 11
same,survivor count,"dose: 300.0 mg/kg/injection, schedule: Q04DX003 (sc), vehicle: saline",0 of 6 on day 11
same,T/C,[8],6 % of control [5 of 6 alive on day 11]
same,survivor count,[8],"0 of 6 on day 11, 2 of 6 on day 11, 3 of 5 on day 11"
same,survivor count,"dose: 600.0 mg/kg/injection, schedule: Q04DX003 (sc), vehicle: saline",0 of 6 on day 11
same,survivor count,[9],0 of 6 on day 11
[N-]=[N+]=CC(=O)CCC(N)C(=O)O (centres undefined),survivor count,"dose: 0.8 mg/kg/injection, schedule: Q01DX010 (sc), vehicle: saline",0 of 2 on day 11 and 1 of 3 on day 11
same,survivor count,"dose: 1.6 mg/kg/injection, schedule: Q01DX010 (sc), vehicle: saline",0 of 3 on day 11
same,survivor count,"dose: 3.2 mg/kg/injection, schedule: Q01DX010 (sc), vehicle: saline",0 of 3 on day 11
same,survivor count,"dose: 6.4 mg/kg/injection, schedule: Q01DX010 (sc), vehicle: saline",0 of 3 on day 11
C=C(C)C(=O)OC1C/C(CO)=C\C(O)C/C(C)=C/C2OC(=O)C(=C)C21 (centres undefined),survivor count,"dose: 160.0 mg/kg/injection, schedule: Q04DX003 (sc), vehicle: saline + alcohol",2 of 6 on day 11
CC1=C2CC(C)(C)/C=C\C(=O)/C(C)=C\C3=C[C@H](C)C[C@]3(O2)C1=O,survivor count,[6],3 of 6 on day 11
same,survivor count,[10],2 of 6 on day 11
same,survivor count,[11],0 of 6 on day 11
same,survivor count,[12],0 of 6 on day 11
same,survivor count,[13],0 of 6 on day 11
CC(C)(C)N1CC1CNC(=O)C(=O)NCC1CN1C(C)(C)C (centres undefined),survivor count,"dose: 50.0 mg/kg/injection, schedule: Q04DX003 (sc), vehicle: saline with Tween-80",2 of 6 on day 11
O=C[C@@H](CO)O[C@H](C=O)c1c[nH]c(=O)[nH]c1=O,survivor count,"dose: 150.0 mg/kg/injection, schedule: Q04DX003 (ip), vehicle: saline",3 of 6 on day 11
N/C(=N\OC(=O)Nc1ccc(CSc2ccc(Cl)cc2)o1)c1ccccn1,survivor count,"dose: 75.0 mg/kg/injection, schedule: Q04DX003 (sc), vehicle: saline",0 of 6 on day 11
same,survivor count,[12],0 of 6 on day 11
same,survivor count,[13],0 of 5 on day 11
